This continues a long series; more values of the same kind are listed elsewhere.
Test: Example 3B: solubility of permethrin in PM (propylene glycol monomethyl ether), DM (diethylene glycol monomethyl ether) and PM or DPM (dipropylene glycol monomethyl ether)/d-limonene mixtures at low temperatures, seeded
Conditions: 10° C.
Description: These solutions were poured into 100 mL tubes with screw top caps. These tubes were placed in the cold water bath and allowed to come to equilibrium at the temperature of the bath. […] The seeded preparations were then thoroughly shaken, replaced in the bath and allowed to remain in the bath for a 24 hour period. The preparations were then examined for crystallization, then again thoroughly agitated and replaced in the bath for an additional time period. Samples of the supernatant were removed after additional crystallization had occurred.
The solvent mixtures tested were: dipropylene glycol monomethyl ether/d-limonene and propylene glycol monomethyl ether/d-limonene.
These solvent mixtures were evaluated at ratios of 2:1, 1:1, 1:2, and then at 8:2 and 9:1 (the first number refers to one of the glycol ethers, the second number refers to d-limonene).

**Q.** Which results are given for `CC1(C)C(C=C(Cl)Cl)C1C(=O)OCc1cccc(Oc2ccccc2)c1` (stereo not drawn) [permethrin]?
**A.** % Total Permethrin (65% permethrin in DPM/d-limonene, 0% d-limonene of solvent mixture): 62.90%; % Total Permethrin (70% permethrin in PM/d-limonene, 67% d-limonene of solvent mixture): 69.04%; % Total Permethrin (70% permethrin in PM/d-limonene, 100% d-limonene of solvent mixture): 69.30%
